Values from PubChem BioAssay AID504784 (Drosophila RNAi Screening Center, 2011)

Purpose: 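Fly genes whose silencing alters how much lipid cells keep in droplets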 (primary screen)
Cells: Drosophila Kc167 embryonic cells
Reagents: long dsRNA against Drosophila genes, about 250 ng dsRNA per well
Duration: 4 days
Challenge: cells fed 400 µM oleic acid bound to BSA
Measurement: 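Cells imaged and segmented; ratio of lipid droplet area to nuclear area, log-transformed, then normalised as a B-score over the screen; higher means more stored lipid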
Scale: droplet/nuclear area B-score: higher = more stored lipid (overstorage)
The deposit covers about 17,000 reagents; below is a random part of those that have a named target and a result. 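Each column is one replicate's B-score; the combined score over replicates was not deposited, so single values may mislead.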 Reagents against one gene are numbered here. Names joined by + are all predicted targets of the reagent. Further read-outs or replicates are left out here.

For I-t (GeneID 41414), what was measured?
droplet/nuclear area B-score, replicate 1: 0.225

For CG7201 (GeneID 38929), what does the deposit list?
droplet/nuclear area B-score, replicate 1: 0.0997

How did the screen score JhI-21 (GeneID 34624)?
droplet/nuclear area B-score, replicate 1: 1.41

With CG8230 (GeneID 35897), what was measured?
droplet/nuclear area B-score, replicate 1: 0.873

How did the screen score KP78a + KP78b #1?
droplet/nuclear area B-score, replicate 1: 0.309

For KP78a + KP78b #2, what was measured?
droplet/nuclear area B-score, replicate 1: -0.332

For CG14811 (GeneID 31132), what was measured?
droplet/nuclear area B-score, replicate 1: -0.677

With Rai1 (GeneID 2768882), how do the results read?
droplet/nuclear area B-score, replicate 1: -0.225

With Tango11 (GeneID 246596) #1, what does the deposit list?
droplet/nuclear area B-score, replicate 1: 0.374

What did the screen give for Tango11 (GeneID 246596) #2?
droplet/nuclear area B-score, replicate 1: 1.17

With phr (GeneID 35735), how do the results read?
droplet/nuclear area B-score, replicate 1: -1.49

With CG15543 (GeneID 43647), how do the results read?
droplet/nuclear area B-score, replicate 1: 0.38

For Tsp (GeneID 33941) #1, how do the results read?
droplet/nuclear area B-score, replicate 1: 0.945

For Tsp (GeneID 33941) #2, what was measured?
droplet/nuclear area B-score, replicate 1: 0.178

What did the screen give for east (GeneID 46006)?
droplet/nuclear area B-score, replicate 1: 0.698

With CG15212 (GeneID 50315), what does the deposit list?
droplet/nuclear area B-score, replicate 1: 0.186

With orb (GeneID 42752) #1, what was measured?
droplet/nuclear area B-score, replicate 1: -1.63

With orb (GeneID 42752) #2, what was measured?
droplet/nuclear area B-score, replicate 1: 1.53

Which result is listed for Orco (GeneID 40650)?
droplet/nuclear area B-score, replicate 1: -0.0164

With aPKC (GeneID 47594) #1, what was measured?
droplet/nuclear area B-score, replicate 1: 1.15

With aPKC (GeneID 47594) #2, what does the deposit list?
droplet/nuclear area B-score, replicate 1: 0.846

What did the screen give for CG31233 (GeneID 42557)?
droplet/nuclear area B-score, replicate 1: -0.0907

What is on record for Urod (GeneID 35986)?
droplet/nuclear area B-score, replicate 1: -0.0659

For Ir10a (GeneID 32067) #1, what was measured?
droplet/nuclear area B-score, replicate 1: 2.04

How did the screen score Ir10a (GeneID 32067) #2?
droplet/nuclear area B-score, replicate 1: -1.28

With Ir10a (GeneID 32067) #3, how do the results read?
droplet/nuclear area B-score, replicate 1: 1.65

What did the screen give for CG11164 (GeneID 32323)?
droplet/nuclear area B-score, replicate 1: 0.131

For Ccs (GeneID 46035), what does the deposit list?
droplet/nuclear area B-score, replicate 1: 0.45

Which result is listed for CG9702 (GeneID 43634)?
droplet/nuclear area B-score, replicate 1: 1.25

For CG15262 (GeneID 34901), what does the deposit list?
droplet/nuclear area B-score, replicate 1: 0.236

What did the screen give for SPoCk (GeneID 40495) #1?
droplet/nuclear area B-score, replicate 1: 0.0282

For SPoCk (GeneID 40495) #2, what was measured?
droplet/nuclear area B-score, replicate 1: -3.18

What did the screen give for SPoCk (GeneID 40495) #3?
droplet/nuclear area B-score, replicate 1: 1.06

For SPoCk (GeneID 40495) #4, how do the results read?
droplet/nuclear area B-score, replicate 1: 0.325

What is on record for Or42b (GeneID 35516)?
droplet/nuclear area B-score, replicate 1: 0.00966

For Arp10 (GeneID 32969), what does the deposit list?
droplet/nuclear area B-score, replicate 1: 0.116

What did the screen give for Hsepi (GeneID 35569)?
droplet/nuclear area B-score, replicate 1: -0.789

With Jhbp6 (GeneID 40479), what does the deposit list?
droplet/nuclear area B-score, replicate 1: 0.11

How did the screen score ncm (GeneID 35099)?
droplet/nuclear area B-score, replicate 1: 0.0333

How did the screen score tx (retired record) (GeneID 44875)?
droplet/nuclear area B-score, replicate 1: -3.91

What did the screen give for robl (GeneID 36963)?
droplet/nuclear area B-score, replicate 1: -0.339

With Ank (GeneID 43770), what does the deposit list?
droplet/nuclear area B-score, replicate 1: 0.921

For Ssu72 (GeneID 32973), how do the results read?
droplet/nuclear area B-score, replicate 1: -0.805

What did the screen give for CG9663 (GeneID 33541)?
droplet/nuclear area B-score, replicate 1: 0.275

What is on record for Antdh (GeneID 32058)?
droplet/nuclear area B-score, replicate 1: -1.93

For cue (GeneID 38174), how do the results read?
droplet/nuclear area B-score, replicate 1: 1.21

With CG5550 (GeneID 36883), what was measured?
droplet/nuclear area B-score, replicate 1: 0.0726

With dare (GeneID 36203), what does the deposit list?
droplet/nuclear area B-score, replicate 1: 0.764

What did the screen give for GC1 (GeneID 41448)?
droplet/nuclear area B-score, replicate 1: 2.73

How did the screen score Ntmt (GeneID 36022)?
droplet/nuclear area B-score, replicate 1: 1.56

With l(3)mbn (GeneID 38701), how do the results read?
droplet/nuclear area B-score, replicate 1: -1.86
